Measurements reported in PubChem BioAssay AID1224830 (NIAID, 2016)
In all, the deposit lists about 18,000 reagents; this is a part drawn at random. About 2,900 of all reagents (16%) count as active. 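Calls are made per well; low scores hint the gene aids the LPS response, high scores that it dampens it.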 Repeated entries: four replicate wells of each siRNA pool.

Test: 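Host factors that control LPS-induced TNF expression in human macrophages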 (primary screen)
System: human THP-1 monocytic leukaemia cells, TNF dual-luciferase reporter clone, PMA-differentiated to macrophage-like cells
Knock-down reagent: siRNA pool against human genes, 50 nM
Duration: LPS for 4 h, given about 3 days after siRNA transfection
Challenge: bacterial LPS (TLR4 ligand), 10 ng/ml
Measured: 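TNF firefly reporter luminescence divided by renilla, normalised to the plate median, then turned into a robust z-score for each replicate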
Direction: TNF reporter robust z-score: higher = stronger TNF reporter response to LPS
Rule for the call: 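a well is active when its z-score exceeds 2.8 or falls below -1.5; control wells carry no call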

target | TNF reporter robust z-score | Outcome
ITGB2 | 1.47 | inactive
ITGB2 | 2.93 | active
ITGB2 | 2.36 | inactive
ITGB2 | 1.91 | inactive
SULT1C2 | -0.41 | inactive
SULT1C2 | -0.09 | inactive
SULT1C2 | -0.74 | inactive
SULT1C2 | -0.34 | inactive
ELAC1 | -0.85 | inactive
ELAC1 | -0.82 | inactive
ELAC1 | -0.86 | inactive
ELAC1 | 0.66 | inactive
ADGRE4P | -0.78 | inactive
ADGRE4P | -0.37 | inactive
ADGRE4P | -0.93 | inactive
ADGRE4P | -0.1 | inactive
KRT18 | 0.07 | inactive
KRT18 | 0.23 | inactive
KRT18 | 0.64 | inactive
KRT18 | -1.14 | inactive
RGS5 | 0.68 | inactive
RGS5 | 0.48 | inactive
RGS5 | 0.73 | inactive
RGS5 | 0.53 | inactive
DPPA3 | -0.8 | inactive
DPPA3 | -1.07 | inactive
DPPA3 | -1.23 | inactive
DPPA3 | -0.42 | inactive
B3GALT4 | 1.14 | inactive
B3GALT4 | 0.23 | inactive
B3GALT4 | -0.14 | inactive
B3GALT4 | 1.15 | inactive
GCM1 | -0.59 | inactive
GCM1 | 1.55 | inactive
GCM1 | 0.42 | inactive
GCM1 | 1.94 | inactive
MAGEA1 | 1.64 | inactive
MAGEA1 | 2.31 | inactive
MAGEA1 | -1.11 | inactive
MAGEA1 | 0.62 | inactive
NAT2 | 0.66 | inactive
NAT2 | -0.59 | inactive
NAT2 | 0.11 | inactive
NAT2 | 0.04 | inactive
TBC1D5 | -1.38 | inactive
TBC1D5 | -1.27 | inactive
TBC1D5 | -1.12 | inactive
TBC1D5 | -2.04 | active
SLC37A4 | -0.06 | inactive
SLC37A4 | 0.17 | inactive
SLC37A4 | -0.3 | inactive
SLC37A4 | 0.1 | inactive
TMBIM4 | -1.38 | inactive
TMBIM4 | -0.49 | inactive
TMBIM4 | -0.05 | inactive
TMBIM4 | 0.65 | inactive
CAMSAP3 | – | inactive
CAMSAP3 | -0.15 | inactive
CAMSAP3 | -0.39 | inactive
CAMSAP3 | -0.57 | inactive
CAMSAP3 | 0.04 | inactive
CFAP299 | -0.28 | inactive
CFAP299 | -0.68 | inactive
CFAP299 | -0.97 | inactive
CFAP299 | -0.33 | inactive
CALM1 | -0.33 | inactive
CALM1 | -0.39 | inactive
CALM1 | -0.57 | inactive
CALM1 | -1.08 | inactive
ARMCX2 | -1.02 | inactive
ARMCX2 | -0.61 | inactive
ARMCX2 | 0.56 | inactive
ARMCX2 | -0.33 | inactive
FANCI | -0.71 | inactive
FANCI | 0.92 | inactive
FANCI | -0.09 | inactive
FANCI | 0.22 | inactive

Reprinted from above for reference:
target | TNF reporter robust z-score | Outcome
SULT1C2 | -0.34 | inactive
ELAC1 | -0.85 | inactive
ELAC1 | -0.82 | inactive
ELAC1 | -0.86 | inactive
ELAC1 | 0.66 | inactive
ADGRE4P | -0.78 | inactive
